The source of these data is the supplement of paper PMC8256030.

Several values for one entry are separate records, joined by “and”; a condition that tells them apart may be missing. Identical values can stand only once. The list shows a part of the results. Repeats in this data set agree poorly, so a single value says little.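 HEK293T cells were given each compound shortly before transfection with a reporter in which red mCherry is followed by the SARS-CoV-2 frameshift element and then GFP in the −1 frame, so GFP appears only after frameshifting.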

One assay concerns SARS-CoV-2 -1 PRF reporter mCherry-FSE-GFP(-1). The experiment in a line: mCherry (red) intensity as percent of control; higher = higher upstream reporter expression. The settings on record: 10 µM; 24 h; HEK293T.
The compound `CC(C)(C)N1CCC(c2ccccc2)(c2ccccc2)CC1` [budipine] gave a mCherry of 117%.

`CC(C)Cc1ccc([C@H](C)C(=O)O)cc1` [dexibuprofen] yielded a mCherry of 109%.

Regarding `CC12CC3CC(C)(C1)CC(N)(C3)C2` [memantine], the mCherry was 105% and 103%.

For another assay the test system is unchanged. The experiment in a line: percent effect, decrease of GFP/mCherry ratio (-1 PRF reporter) relative to controls; higher = stronger frameshift inhibition. The note with it: 10 µM; 24 h; HEK293T.
On to `N#Cc1c[nH]c2c(C(=O)N3CCN(CCc4ccc(F)cc4)CC3)cccc12` [pruvanserin], for which the percent effect is 0.262%.

Regarding `O=C(CCCN1CCC(O)(c2cccc(C(F)(F)F)c2)CC1)c1ccc(F)cc1` [trifluperidol], the percent effect was 0.543%.

As for `CCOC(=O)NNc1ccc(N(CC)CC(C)O)nn1` (stereo not given) [cadralazine], the percent effect was determined as 3.52%.

In the case of `O=c1[nH]c2cc(Cl)c(Cl)c([N+](=O)[O-])c2[nH]c1=O` [licostinel], the percent effect is -0.521%.

As to `O=C([O-])[C@H](O)[C@@H](O)[C@H](O)[C@H](O)CO.[Na+]`, the percent effect worked out at 2.33%.

Turning to `O=C1N(c2ccccc2)c2ccccc2C1(Cc1ccncc1)Cc1ccncc1` [linopirdine], the percent effect is -2.55%.

With `CCN(CC)CCCN1c2ccccc2Sc2ccc(Cl)cc21` [chlorproethazine], the percent effect is -2.01%.

Take `COc1ccc(N(CCCC(=O)O)C(=O)c2ccc(Cl)cc2)cc1` [clanobutin]: the percent effect was -1.06%.

With `Cc1cc(-c2ccccc2)nnc1NCCN1CCOCC1` [minaprine], the percent effect was -6.44%.

As to `CN(C)CCCN1c2ccccc2Sc2cccnc21` [prothipendyl], the percent effect stood at 1.59%.

`Cc1c(C)c2c(c(C)c1O)CCC(C)(CCCC(C)CCCC(C)CCCC(C)C)O2` (stereo not given) [Vitamin E]: the percent effect was -1.99%.

As for `C[n+]1cc2c3c(ccc2c2ccc4cc5c(cc4c21)OCO5)OCO3` [sanguinarium chloride], the percent effect was found to be 1.4%.

Consider `N=C(N)N`, for which the percent effect is 1.54%.

As to `Clc1cccc(C(c2ccc3[nH]cnc3c2)n2ccnc2)c1` (stereo not given) [liarozole], the percent effect was -2.45%.

Turning to `CCOC(CN1CCN(CC(C)C(=O)c2ccccc2)CC1)c1ccccc1` (stereo not given) [eprazinone], the percent effect is -7.11%.

For the compound `O=C1CC[C@@H](C(=O)N2CSC[C@H]2C(=O)O)N1` [pidotimod], the percent effect is 0.529%.

Regarding `C[C@]12CC[C@H]3[C@@H](CCC4=CC(=O)CC[C@@]43C)[C@@H]1CC[C@@H]2C(=O)CO` [desoxycortone], the percent effect was -2.53%.

Take `COc1ccc(C(=O)N2CCN(c3ccc4c(c3)CCC(=O)N4)CC2)cc1OC` [vesnarinone]: the percent effect is -4.6%.

In the case of `CC(C)(CO)[C@@H](O)C(=O)NCCC(=O)NCCSSCCNC(=O)CCNC(=O)[C@H](O)C(C)(C)CO`, the percent effect amounted to 1.39%.

In the case of `O=C1C(=O)c2ccccc2C(O)=C1C1CCC(c2ccc(Cl)cc2)CC1` (stereo not given) [Atovaquone], the percent effect was -4.26%.

As to `CCO/C([O-])=N/c1c[n+](N2CCOCC2)no1`, the percent effect stood at 1.35%.

As for `O=C1NCCNC1c1cccs1` (stereo not given) [tenilsetam], the percent effect was -3.56%.

As for `c1ccc(Cc2nc3ccccc3[nH]2)cc1` [bendazol], the percent effect was -1.6%.

Take `CCCN(CC)C(CC)C(=O)Nc1c(C)cccc1C` (stereo not given) [Etidocaine]: the percent effect is -1.2%.

With `Cc1nc(Nc2ncc(C(=O)Nc3c(C)cccc3Cl)s2)cc(N2CCN(CCO)CC2)n1` [dasatinib], the percent effect worked out at 3.5%.

Consider `N[C@@H](CCC(=O)N[C@@H](CS)C(=O)NCC(=O)O)C(=O)O`, for which the percent effect amounted to 0.689%.

For `C[C@@H]1C[C@H]2[C@@H]3C[C@H](F)C4=CC(=O)C=C[C@]4(C)[C@@]3(F)[C@@H](O)C[C@]2(C)[C@@]1(O)C(=O)COC(=O)C(C)(C)C` [Locorten], the percent effect was -2.8%.

For the compound `CCCCCCCCCCCCCCCC(=O)OC[C@@H](O)[C@H]1OC[C@H](O)[C@H]1O` [sorbitan palmitate], the percent effect came out at 1.05%.

Consider `CC(C)(C)NC[C@H](O)c1ccc(O)c(CO)c1` [levosalbutamol], for which the percent effect is -0.519%.

For `O=c1ccc2ccccc2o1`, the percent effect is -4.27%.

Turning to `COc1ccc(OC(=O)N(CC(=O)O)Cc2ccc(OCCc3nc(-c4ccccc4)oc3C)cc2)cc1` [muraglitazar], the percent effect is -4.91%.

Consider `CC1=C(C(=O)O)N2C(=O)[C@@H](NC(=O)[C@H](N)C3=CCC=CC3)[C@H]2SC1` [cefradine], for which the percent effect was -3.61%.

In the case of `COC(=O)N[C@H](C(=O)N[C@@H](Cc1ccccc1)[C@@H](O)CN(Cc1ccc(-c2ccccn2)cc1)NC(=O)[C@@H](NC(=O)OC)C(C)(C)C)C(C)(C)C` [atazanavir], the percent effect was -0.889%.

As to `Clc1ccc(C(c2ccccc2Cl)C(Cl)Cl)cc1` (stereo not given) [mitotane], the percent effect worked out at 3.54%.

Consider `Nc1nc2c([nH]1)c(=O)n(CC1CC1)c(=O)n2CC1CC1` [cipamfylline], for which the percent effect is -6.59%.

Turning to `CNCC(O)c1ccc(OC(=O)C(C)(C)C)c(OC(=O)C(C)(C)C)c1` (stereo not given) [dipivefrine], the percent effect is -5.69%.

With `CC(=O)O[C@H]1C(=O)[C@@]2(C)[C@H]([C@H](OC(=O)c3ccccc3)[C@]3(O)C[C@H](OC(=O)[C@H](O)[C@@H](NC(=O)c4ccccc4)c4ccccc4)C(C)=C1C3(C)C)[C@]1(OC(C)=O)CO[C@@H]1C[C@@H]2O` [Taxol], the percent effect was -13.1%.
